Measurements reported in publication doi:10.1101/2023.07.10.548302.
Results are given in words; binding and its absence hold for the method and conditions named. In cells and extracts the contact can be indirect. Binding calls can cover weak binding; strength is not graded here. Where a sequence is shown, tags or fusion partners need not be part of it.

T1: Vap33-V5 (Drosophila) (UniProt Q9W4N8)
T1 sequence: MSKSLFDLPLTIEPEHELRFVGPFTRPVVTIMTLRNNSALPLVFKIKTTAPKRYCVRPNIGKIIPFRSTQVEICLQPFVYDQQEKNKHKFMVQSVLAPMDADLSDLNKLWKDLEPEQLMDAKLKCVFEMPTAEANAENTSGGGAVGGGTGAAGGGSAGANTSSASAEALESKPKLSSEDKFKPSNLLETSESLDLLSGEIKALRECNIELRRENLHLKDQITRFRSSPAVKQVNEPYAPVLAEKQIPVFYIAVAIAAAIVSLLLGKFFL

B1: Vap33-V5 (protein, UniProt Q9W4N8 1-269)
chain: T1 sequence

Columns and labels:
Vap33-V5 (Drosophila) = biological target: T1, Vap33-V5 (Drosophila); test: co-IP
[1] = biological target: RtGEF tagged with HA (Drosophila); test: co-IP

Molecule	binding (Vap33-V5 (Drosophila))	binding [1]
RtGEF tagged with HA (Drosophila)	binds	
B1		binds
